The supplement of paper PMC10849652
This is one part of the list.

Amino acid sequences for entries named in this document (tags omitted). A change or cut given only in a name is not applied to a line headed by its entry.
UniProt O95900: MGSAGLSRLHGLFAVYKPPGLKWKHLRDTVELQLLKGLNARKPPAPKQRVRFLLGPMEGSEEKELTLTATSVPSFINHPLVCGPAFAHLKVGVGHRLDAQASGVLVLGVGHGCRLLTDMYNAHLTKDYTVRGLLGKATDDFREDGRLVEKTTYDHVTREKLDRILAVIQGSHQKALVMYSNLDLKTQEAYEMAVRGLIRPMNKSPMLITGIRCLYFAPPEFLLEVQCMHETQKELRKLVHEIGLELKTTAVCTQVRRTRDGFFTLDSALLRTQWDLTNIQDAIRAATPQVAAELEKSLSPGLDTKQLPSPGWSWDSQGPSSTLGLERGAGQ
UniProt Q12999: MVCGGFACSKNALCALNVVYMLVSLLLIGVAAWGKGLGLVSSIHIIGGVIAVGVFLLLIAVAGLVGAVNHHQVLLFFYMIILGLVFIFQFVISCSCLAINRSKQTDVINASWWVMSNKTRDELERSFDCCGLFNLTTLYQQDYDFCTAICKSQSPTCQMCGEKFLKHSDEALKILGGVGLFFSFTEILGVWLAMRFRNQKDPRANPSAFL
UniProt Q9H2D6: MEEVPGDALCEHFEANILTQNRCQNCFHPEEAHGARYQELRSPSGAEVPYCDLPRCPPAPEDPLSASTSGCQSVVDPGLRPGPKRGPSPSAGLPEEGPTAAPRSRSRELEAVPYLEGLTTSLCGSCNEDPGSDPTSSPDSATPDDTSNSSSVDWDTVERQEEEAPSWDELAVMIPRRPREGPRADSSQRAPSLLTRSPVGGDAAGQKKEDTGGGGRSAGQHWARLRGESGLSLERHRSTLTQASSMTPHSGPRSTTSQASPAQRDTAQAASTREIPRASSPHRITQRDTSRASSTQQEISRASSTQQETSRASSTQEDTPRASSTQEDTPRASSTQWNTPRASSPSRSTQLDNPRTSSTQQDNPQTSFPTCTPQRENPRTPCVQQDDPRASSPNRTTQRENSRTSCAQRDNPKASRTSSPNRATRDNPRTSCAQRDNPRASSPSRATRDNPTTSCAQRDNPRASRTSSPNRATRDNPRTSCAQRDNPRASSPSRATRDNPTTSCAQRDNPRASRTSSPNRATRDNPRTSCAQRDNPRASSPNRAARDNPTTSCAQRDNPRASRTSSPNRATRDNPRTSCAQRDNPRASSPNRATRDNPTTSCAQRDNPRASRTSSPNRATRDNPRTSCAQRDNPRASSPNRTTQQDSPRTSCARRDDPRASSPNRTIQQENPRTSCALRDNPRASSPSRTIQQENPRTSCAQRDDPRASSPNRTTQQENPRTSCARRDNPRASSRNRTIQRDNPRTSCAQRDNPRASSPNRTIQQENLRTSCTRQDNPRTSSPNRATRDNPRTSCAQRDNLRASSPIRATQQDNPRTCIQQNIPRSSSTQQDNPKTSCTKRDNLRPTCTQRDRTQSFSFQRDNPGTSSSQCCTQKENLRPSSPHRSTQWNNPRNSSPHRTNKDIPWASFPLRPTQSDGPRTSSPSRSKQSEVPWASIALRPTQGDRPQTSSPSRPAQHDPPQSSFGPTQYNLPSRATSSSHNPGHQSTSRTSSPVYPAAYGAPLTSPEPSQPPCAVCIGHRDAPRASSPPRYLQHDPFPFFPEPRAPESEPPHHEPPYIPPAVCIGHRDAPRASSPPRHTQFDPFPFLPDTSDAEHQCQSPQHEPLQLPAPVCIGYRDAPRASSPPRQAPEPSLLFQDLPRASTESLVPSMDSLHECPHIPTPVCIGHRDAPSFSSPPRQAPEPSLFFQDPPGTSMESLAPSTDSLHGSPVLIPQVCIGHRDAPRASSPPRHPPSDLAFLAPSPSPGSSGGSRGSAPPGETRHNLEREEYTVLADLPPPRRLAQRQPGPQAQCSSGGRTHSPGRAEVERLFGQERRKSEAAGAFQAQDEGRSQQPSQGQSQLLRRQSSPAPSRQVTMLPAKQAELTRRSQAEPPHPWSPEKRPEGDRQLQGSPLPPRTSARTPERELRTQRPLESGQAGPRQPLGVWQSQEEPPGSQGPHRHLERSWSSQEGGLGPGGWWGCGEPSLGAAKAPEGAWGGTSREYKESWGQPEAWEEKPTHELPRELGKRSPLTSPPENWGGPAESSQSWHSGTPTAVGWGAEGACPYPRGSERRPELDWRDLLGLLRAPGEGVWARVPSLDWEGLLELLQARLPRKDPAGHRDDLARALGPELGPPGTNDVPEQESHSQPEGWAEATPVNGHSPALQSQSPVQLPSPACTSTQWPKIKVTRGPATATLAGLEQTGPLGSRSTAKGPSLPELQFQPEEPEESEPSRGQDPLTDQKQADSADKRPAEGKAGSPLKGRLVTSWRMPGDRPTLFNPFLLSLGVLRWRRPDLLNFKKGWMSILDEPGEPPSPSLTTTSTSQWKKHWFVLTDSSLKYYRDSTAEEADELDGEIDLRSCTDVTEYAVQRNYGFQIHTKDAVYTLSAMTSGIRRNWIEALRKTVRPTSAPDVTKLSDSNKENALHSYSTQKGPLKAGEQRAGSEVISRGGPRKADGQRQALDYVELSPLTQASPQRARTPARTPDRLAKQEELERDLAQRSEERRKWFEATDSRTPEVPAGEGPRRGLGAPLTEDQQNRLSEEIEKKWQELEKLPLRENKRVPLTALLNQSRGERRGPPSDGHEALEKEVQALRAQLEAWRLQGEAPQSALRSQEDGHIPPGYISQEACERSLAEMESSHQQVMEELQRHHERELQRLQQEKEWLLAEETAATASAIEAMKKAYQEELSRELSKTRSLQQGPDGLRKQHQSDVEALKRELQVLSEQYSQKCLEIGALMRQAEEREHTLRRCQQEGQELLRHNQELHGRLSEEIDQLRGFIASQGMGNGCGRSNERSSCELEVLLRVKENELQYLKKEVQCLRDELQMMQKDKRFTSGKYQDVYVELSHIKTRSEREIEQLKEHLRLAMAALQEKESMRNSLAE
UniProt Q9BU70: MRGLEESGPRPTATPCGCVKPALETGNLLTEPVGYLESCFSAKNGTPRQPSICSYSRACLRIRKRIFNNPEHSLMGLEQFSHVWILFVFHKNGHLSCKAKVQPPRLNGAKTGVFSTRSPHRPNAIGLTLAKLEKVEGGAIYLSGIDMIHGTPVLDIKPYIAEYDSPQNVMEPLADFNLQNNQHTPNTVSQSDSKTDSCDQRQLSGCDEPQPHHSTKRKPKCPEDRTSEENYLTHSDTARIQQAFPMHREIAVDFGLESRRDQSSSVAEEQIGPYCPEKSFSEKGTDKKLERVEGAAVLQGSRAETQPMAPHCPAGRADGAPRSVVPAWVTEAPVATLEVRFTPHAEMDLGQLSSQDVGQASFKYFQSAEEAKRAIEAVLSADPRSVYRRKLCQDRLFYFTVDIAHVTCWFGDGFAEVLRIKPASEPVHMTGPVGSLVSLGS
UniProt Q6AZZ1: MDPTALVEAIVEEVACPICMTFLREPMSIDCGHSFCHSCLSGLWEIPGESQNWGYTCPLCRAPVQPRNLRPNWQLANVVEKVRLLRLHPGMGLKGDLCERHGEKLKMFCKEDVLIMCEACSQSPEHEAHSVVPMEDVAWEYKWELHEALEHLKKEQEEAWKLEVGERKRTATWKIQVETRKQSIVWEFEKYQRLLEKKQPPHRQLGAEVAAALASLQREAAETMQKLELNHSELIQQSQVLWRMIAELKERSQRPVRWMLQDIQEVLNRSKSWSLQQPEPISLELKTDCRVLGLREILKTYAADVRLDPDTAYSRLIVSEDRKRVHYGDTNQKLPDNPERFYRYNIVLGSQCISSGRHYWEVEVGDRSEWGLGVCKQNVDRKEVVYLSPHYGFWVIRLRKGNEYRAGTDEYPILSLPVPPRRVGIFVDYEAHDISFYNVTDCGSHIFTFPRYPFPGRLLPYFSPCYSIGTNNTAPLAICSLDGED
UniProt O14817: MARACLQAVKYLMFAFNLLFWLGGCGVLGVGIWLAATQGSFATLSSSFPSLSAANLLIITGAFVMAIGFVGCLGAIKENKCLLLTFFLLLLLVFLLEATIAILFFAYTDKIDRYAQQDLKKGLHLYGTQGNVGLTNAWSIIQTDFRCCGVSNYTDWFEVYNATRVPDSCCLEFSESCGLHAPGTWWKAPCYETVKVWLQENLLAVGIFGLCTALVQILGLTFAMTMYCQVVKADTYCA
UniProt O60637: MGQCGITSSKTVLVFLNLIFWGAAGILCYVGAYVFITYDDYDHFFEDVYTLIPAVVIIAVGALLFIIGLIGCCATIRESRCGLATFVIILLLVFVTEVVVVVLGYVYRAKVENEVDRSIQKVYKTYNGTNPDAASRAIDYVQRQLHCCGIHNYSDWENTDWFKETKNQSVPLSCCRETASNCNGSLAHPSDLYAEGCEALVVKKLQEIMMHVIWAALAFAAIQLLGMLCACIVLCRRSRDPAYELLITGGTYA
UniProt P14373: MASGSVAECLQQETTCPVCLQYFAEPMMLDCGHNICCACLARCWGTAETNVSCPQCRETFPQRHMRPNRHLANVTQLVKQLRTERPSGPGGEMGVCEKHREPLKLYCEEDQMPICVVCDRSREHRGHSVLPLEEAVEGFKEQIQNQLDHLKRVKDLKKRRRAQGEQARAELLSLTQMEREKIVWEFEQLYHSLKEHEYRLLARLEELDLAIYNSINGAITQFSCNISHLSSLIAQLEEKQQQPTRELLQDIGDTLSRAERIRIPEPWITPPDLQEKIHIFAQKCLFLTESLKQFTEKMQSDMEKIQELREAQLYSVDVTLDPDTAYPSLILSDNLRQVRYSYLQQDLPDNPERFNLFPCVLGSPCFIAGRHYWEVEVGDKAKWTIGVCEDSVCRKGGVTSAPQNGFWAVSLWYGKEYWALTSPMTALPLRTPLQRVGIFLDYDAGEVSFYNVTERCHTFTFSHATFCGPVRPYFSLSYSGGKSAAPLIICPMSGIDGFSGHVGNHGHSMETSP
UniProt O43734: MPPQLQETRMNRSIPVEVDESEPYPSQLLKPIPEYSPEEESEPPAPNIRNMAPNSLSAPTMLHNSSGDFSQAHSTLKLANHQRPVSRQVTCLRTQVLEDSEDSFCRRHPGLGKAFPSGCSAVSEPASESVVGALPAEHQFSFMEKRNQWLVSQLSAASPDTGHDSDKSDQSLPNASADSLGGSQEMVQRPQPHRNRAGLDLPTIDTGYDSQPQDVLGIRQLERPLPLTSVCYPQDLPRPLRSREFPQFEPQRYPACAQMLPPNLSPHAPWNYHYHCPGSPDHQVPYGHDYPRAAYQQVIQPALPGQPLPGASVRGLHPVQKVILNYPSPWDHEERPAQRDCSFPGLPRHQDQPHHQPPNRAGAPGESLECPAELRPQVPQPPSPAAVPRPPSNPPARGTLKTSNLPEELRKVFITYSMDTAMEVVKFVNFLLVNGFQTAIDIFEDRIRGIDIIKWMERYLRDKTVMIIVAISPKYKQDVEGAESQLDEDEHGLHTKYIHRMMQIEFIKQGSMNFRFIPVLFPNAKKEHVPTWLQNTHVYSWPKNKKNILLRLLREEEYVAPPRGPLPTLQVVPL
UniProt Q629K1: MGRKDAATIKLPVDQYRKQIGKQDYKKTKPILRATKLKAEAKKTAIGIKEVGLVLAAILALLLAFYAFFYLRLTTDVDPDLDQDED
UniProt Q12899: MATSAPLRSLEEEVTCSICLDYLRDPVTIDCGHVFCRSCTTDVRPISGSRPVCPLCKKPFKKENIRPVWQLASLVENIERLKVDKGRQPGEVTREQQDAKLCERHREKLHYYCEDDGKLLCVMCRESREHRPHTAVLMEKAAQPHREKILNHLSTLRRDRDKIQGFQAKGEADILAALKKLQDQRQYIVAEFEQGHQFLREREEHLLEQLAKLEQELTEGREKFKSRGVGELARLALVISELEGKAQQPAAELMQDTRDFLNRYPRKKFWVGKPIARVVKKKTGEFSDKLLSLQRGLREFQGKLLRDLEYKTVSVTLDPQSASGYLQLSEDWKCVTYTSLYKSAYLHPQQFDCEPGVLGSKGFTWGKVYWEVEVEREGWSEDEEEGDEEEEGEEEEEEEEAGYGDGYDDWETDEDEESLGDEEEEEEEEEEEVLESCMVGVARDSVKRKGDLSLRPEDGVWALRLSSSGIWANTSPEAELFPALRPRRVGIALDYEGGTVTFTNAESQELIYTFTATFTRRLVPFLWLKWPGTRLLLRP
UniProt Q8N831: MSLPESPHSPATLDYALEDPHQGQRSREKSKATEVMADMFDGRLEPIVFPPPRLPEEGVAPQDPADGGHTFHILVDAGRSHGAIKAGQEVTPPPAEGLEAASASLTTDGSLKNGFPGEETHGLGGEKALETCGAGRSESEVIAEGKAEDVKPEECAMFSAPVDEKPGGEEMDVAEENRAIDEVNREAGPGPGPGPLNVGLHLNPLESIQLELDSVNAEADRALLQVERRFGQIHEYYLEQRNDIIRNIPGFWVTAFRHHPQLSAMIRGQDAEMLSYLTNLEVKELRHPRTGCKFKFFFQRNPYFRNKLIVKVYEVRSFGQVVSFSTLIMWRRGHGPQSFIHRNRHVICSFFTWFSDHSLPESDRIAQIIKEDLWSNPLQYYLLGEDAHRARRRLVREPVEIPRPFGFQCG

How the values were obtained:
Experiment in all cases: log2 fold change, soluble protein after heating vs DMSO (PISA); higher = thermal stabilisation; K562 lysate, 10 uM; active = over 0.2 and 3.5 SD of the protein, either way, in both replicates (recomputed)
dasatinib = compound: Cc1nc(Nc2ncc(C(=O)Nc3c(C)cccc3Cl)s2)cc(N2CCN(CCO)CC2)n1 [dasatinib]
Procedure, shortened: (§1)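 K562 pellets were dounce-homogenised in PBS pH 7.4 containing 1 mM MgCl2, and the crude extract, at 1 mg/mL protein, was exposed to 10 μM compound for 30 min. Aliquots were heated for 3 min across 48°C-58°C, pooled, brought to 0.5% NP-40 at 4°C and spun at 21,000xg for 90 min, with the supernatant taken as soluble protein. TMTpro 16plex LC-MS/MS with equalised channel sums quantified that protein. Values are log-two fold changes in thermal stability relative to solvent controls, taken from duplicates.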

[1] = compound: Cn1cc(-c2ccc3c(c2)CCN3C(=O)Cc2cccc(C(F)(F)F)c2)c2c(N)ncnc21
Procedure, shortened: as §1

quisinostat = compound: Cn1cc(CNCC2CCN(c3ncc(C(=O)NO)cn3)CC2)c2ccccc21 [quisinostat]
Procedure, shortened: as §1

[2] = compound: NC(=O)Nc1cc(-c2cccc(F)c2)sc1C(=O)N[C@H]1CCCNC1
Procedure, shortened: as §1

[3] = compound: NC(=O)c1cnc(N[C@@H]2CCCC[C@@H]2N)nc1Nc1cccc(-n2nccn2)c1
Procedure, shortened: as §1

[4] = compound: NC1(c2ccc(-c3nc4ccn5c(=O)[nH]nc5c4cc3-c3ccccc3)cc2)CCC1
Procedure, shortened: as §1

[5] = compound: NCC(=O)Nc1ccc(-n2nc(C(F)(F)F)cc2-c2ccc3c(ccc4ccccc43)c2)cc1
Procedure, shortened: as §1

vorinostat = compound: O=C(CCCCCCC(=O)Nc1ccccc1)NO [vorinostat]
Procedure, shortened: as §1

silmitasertib = compound: O=C(O)c1ccc2c(c1)nc(Nc1cccc(Cl)c1)c1ccncc12 [silmitasertib]
Procedure, shortened: as §1

[6] = compound: O=C1NC(=O)C(c2cnc3ccccn23)=C1c1cn2c3c(cc(F)cc13)CN(C(=O)N1CCCCC1)CC2
Procedure, shortened: as §1

entospletinib = compound: c1cn2cc(-c3ccc4cn[nH]c4c3)nc(Nc3ccc(N4CCOCC4)cc3)c2n1 [entospletinib]
Procedure, shortened: as §1

nilotinib = compound: Cc1cn(-c2cc(NC(=O)c3ccc(C)c(Nc4nccc(-c5cccnc5)n4)c3)cc(C(F)(F)F)c2)cn1 [nilotinib]
Procedure, shortened: as §1

[7] = compound: Cc1nc(Nc2n[nH]c3c2CN(C(=O)N[C@H](CN(C)C)c2ccccc2)C3(C)C)c2sccc2n1
Procedure, shortened: as §1

[8] = compound: Cc1ncc(-c2ccnc(Nc3ccc(S(C)(=O)=O)cc3)n2)n1C(C)C
Procedure, shortened: as §1

tipifarnib = compound: Cn1cncc1[C@@](N)(c1ccc(Cl)cc1)c1ccc2c(c1)c(-c1cccc(Cl)c1)cc(=O)n2C [tipifarnib]
Procedure, shortened: as §1

Measured: log2 fold change

TRAF3IP1 (UniProt Q8TDR0)
inactive: dasatinib -0.029 | [1] 0.128 | quisinostat 0.082 | [2] 0.025 | [3] -0.035 | [4] -0.081 | [5] 0.089 | vorinostat 0.072 | silmitasertib 0.105 | [6] 0.05 | entospletinib -0.061

TTC13 (UniProt Q8NBP0)
inactive: quisinostat -0.149 | [2] -0.062 | [3] 0.562 | [5] 0.087 | [6] 0.124

TRIM3 (UniProt O75382)
inactive: [3] 0.623 | [4] 0.146 | [5] -0.304 | vorinostat -0.055 | silmitasertib -0.179 | entospletinib -0.056

TSKS (UniProt Q9UJT2)
inactive: dasatinib 0.119 | [1] -0.077 | quisinostat -0.024 | [2] -0.005 | [4] -0.032 | [5] 0.037 | vorinostat -0.062 | silmitasertib 0.041 | [6] 0.02 | entospletinib -0.118

TRUB2 (UniProt O95900)
inactive: dasatinib -0.07 | [1] 0.043 | [4] -0.016 | [5] 0.147 | vorinostat -0.024 | silmitasertib 0.08 | entospletinib -0.025

TTLL12 (UniProt V9GY16)
inactive: quisinostat -0.436 | [2] -0.021 | [4] 0.039 | [5] 0.115 | vorinostat 0.076 | silmitasertib -0.298 | [6] 0.035 | entospletinib 0.103

TRIB3 (UniProt Q96RU7)
inactive: dasatinib 0.126 | [1] -0.016 | [4] 0.108 | vorinostat 0.085 | silmitasertib 0.146 | entospletinib -0.042

TRIM67 (UniProt Q6ZTA4)
inactive: [3] 0.215 | [4] 0.079 | vorinostat -0.094 | silmitasertib -0.016 | entospletinib -0.013

TRIM41 (UniProt Q8WV44)
inactive: dasatinib -0.069 | [1] 0.006 | quisinostat -0.041 | [2] 0.027 | [3] 0.077 | [5] 0.083 | [6] 0.12 | entospletinib 0.056

TSPAN31 (UniProt Q12999)
inactive: dasatinib 0.135 | [1] 0.05 | quisinostat 0.017 | [2] -0.007 | [5] -0.037 | [6] -0.033

TRIM37 (UniProt O94972)
inactive: dasatinib -0.163 | [1] 0.046 | quisinostat 0 | [2] 0.122 | [4] 0.008 | vorinostat -0.175 | silmitasertib 0.01 | [6] 0.04 | entospletinib -0.051

TRIOBP (UniProt Q9H2D6)
inactive: dasatinib -0.029 | [1] 0.057 | quisinostat 0.004 | [2] 0.039 | [3] -0.041 | [4] 0.007 | [5] -0.081 | vorinostat 0.002 | silmitasertib 0.004 | [6] -0.024 | entospletinib -0.01

TSEN15, A0A2U3TZM3
inactive: nilotinib 0.121 | [7] 0.088 | dasatinib 0.024 | [8] 0.32 | [1] 0.003 | tipifarnib -0.269 | [3] 0.08 | [5] 0.046

TRMO (UniProt Q9BU70)
inactive: dasatinib -0.002 | [1] 0.055 | quisinostat -0.047 | [2] 0.058 | [5] -0.014 | [6] -0.135 | entospletinib -0.006

TRIM68 (UniProt Q6AZZ1)
inactive: nilotinib -0.156 | [7] 0.037 | [8] 0.023 | quisinostat -0.642 | tipifarnib 0.005 | [2] 0.072 | [4] 0.05 | vorinostat 0.101 | silmitasertib -0.119 | [6] -0.076 | entospletinib 0.202

TSPAN4 (UniProt O14817)
inactive: quisinostat 0.066 | [2] 0.043 | [4] -0.015 | [5] 0.026 | vorinostat -0.034 | silmitasertib -0.007 | [6] 0.006 | entospletinib -0.01

Retrieved one by one from above (2):
TSKS (UniProt Q9UJT2)
inactive: dasatinib 0.119 | [1] -0.077 | quisinostat -0.024 | [2] -0.005 | [4] -0.032 | [5] 0.037 | vorinostat -0.062 | silmitasertib 0.041 | [6] 0.02 | entospletinib -0.118

TRIM37 (UniProt O94972)
inactive: dasatinib -0.163 | [1] 0.046 | quisinostat 0 | [2] 0.122 | [4] 0.008 | vorinostat -0.175 | silmitasertib 0.01 | [6] 0.04 | entospletinib -0.051

(next part)

TTLL4 (UniProt Q14679)
inactive: nilotinib 0.13 | [7] -0.045 | [8] 0.077 | tipifarnib 0.033

TSPAN3 (UniProt O60637)
inactive: nilotinib 0.004 | [7] -0.003 | dasatinib 0.118 | [8] -0.199 | [1] 0.033 | tipifarnib -0.032 | [3] -0.098 | [4] 0.015 | [5] -0.124 | vorinostat 0.105 | silmitasertib -0.056 | entospletinib -0.005

TTBK2 (UniProt Q6IQ55)
inactive: quisinostat 0.007 | [2] 0.052 | [4] -0.16 | vorinostat -0.081 | silmitasertib 0.083 | [6] -0.021 | entospletinib 0.324

TRAM2 (UniProt Q15035)
inactive: quisinostat 0.058 | [2] 0.088 | [3] 0.208 | [6] 0.082

TRIM16 (UniProt O95361)
inactive: dasatinib -0.061 | [1] -0.04 | [4] -0.092 | vorinostat -0.155 | silmitasertib 0.037 | entospletinib -0.153

TRMT44 (UniProt Q8IYL2)
inactive: quisinostat -0.245 | [2] 0.13 | [6] 0.013

TTC39B (UniProt Q5VTQ0)
inactive: dasatinib -0.031 | [1] 0.1 | [3] -0.042 | [4] 0 | [5] 0.508 | vorinostat 0.125 | silmitasertib 0.068

TTC26
inactive: nilotinib 0.197 | [7] -0.075 | dasatinib -0.175 | [8] 0.246 | [1] 0.075 | tipifarnib 0.167 | entospletinib 0.126

TRIM27 (UniProt P14373)
inactive: nilotinib 0.075 | [7] -0.006 | [8] 0.104 | quisinostat -0.015 | tipifarnib 0.008 | [2] 0.068 | [4] 0.069 | [5] -0.136 | vorinostat -0.135 | silmitasertib -0.102 | [6] 0.01

TRAF3IP2 (UniProt O43734)
inactive: [4] -0.088 | [5] -0.283 | vorinostat -0.49 | silmitasertib 0.101

TTC21B (UniProt Q7Z4L5)
inactive: nilotinib -0.12 | [7] 0.024 | dasatinib 0.073 | [8] -0.02 | [1] 0.096 | tipifarnib 0.021 | [4] 0.139 | [5] 0.141 | vorinostat -0.14 | silmitasertib -0.192 | entospletinib 0.175

TRPS1 isoform 2 (UniProt Q9UHF7)
inactive: dasatinib 0.103 | [1] -0.106 | quisinostat -0.465 | [2] 0.199 | [3] -0.086 | [4] 0.007 | vorinostat 0.002 | silmitasertib -0.221 | [6] -0.258

TTF1 (UniProt Q15361)
inactive: nilotinib -0.074 | [7] -0.047 | [8] 0.135 | tipifarnib 0.033 | entospletinib 0.028

TRIQK (UniProt Q629K1)
inactive: dasatinib 0.218 | [1] 0.225 | quisinostat -0.04 | [2] -0.01 | [3] -0.007 | [4] 0.037 | vorinostat -0.069 | silmitasertib -0.047 | [6] -0.099 | entospletinib 0.181

TRIM26 (UniProt Q12899)
inactive: nilotinib -0.132 | [7] 0.027 | [8] -0.155 | quisinostat -0.002 | tipifarnib 0.061 | [2] -0.076 | [3] -0.001 | [6] -0.143

TRAF5 isoform 2 (UniProt O00463)
inactive: [4] -0.099 | vorinostat -0.099 | silmitasertib -0.007 | entospletinib -0.056

TSPYL6 (UniProt Q8N831)
inactive: dasatinib 0.021 | [1] 0.039 | [4] 0.046 | vorinostat -0.019 | silmitasertib 0.007

TTC28 (UniProt Q96AY4)
inactive: nilotinib 0.011 | [7] -0.114 | [8] -0.054 | quisinostat -0.155 | tipifarnib 0.101 | [2] 0.108 | [4] -0.147 | [5] -0.155 | vorinostat -0.389 | silmitasertib 0.127 | [6] -0.011

TSC22D1 isoform 2 (UniProt Q15714)
inactive: quisinostat -0.134 | [2] 0.078 | [6] -0.03 | entospletinib -0.314
